Data on 1 substance can be found in article PMC9890228 (The EMBO Journal, 2022).

Amino acid sequences for entries named in this document (tags omitted).
UniProt Q8TAF3: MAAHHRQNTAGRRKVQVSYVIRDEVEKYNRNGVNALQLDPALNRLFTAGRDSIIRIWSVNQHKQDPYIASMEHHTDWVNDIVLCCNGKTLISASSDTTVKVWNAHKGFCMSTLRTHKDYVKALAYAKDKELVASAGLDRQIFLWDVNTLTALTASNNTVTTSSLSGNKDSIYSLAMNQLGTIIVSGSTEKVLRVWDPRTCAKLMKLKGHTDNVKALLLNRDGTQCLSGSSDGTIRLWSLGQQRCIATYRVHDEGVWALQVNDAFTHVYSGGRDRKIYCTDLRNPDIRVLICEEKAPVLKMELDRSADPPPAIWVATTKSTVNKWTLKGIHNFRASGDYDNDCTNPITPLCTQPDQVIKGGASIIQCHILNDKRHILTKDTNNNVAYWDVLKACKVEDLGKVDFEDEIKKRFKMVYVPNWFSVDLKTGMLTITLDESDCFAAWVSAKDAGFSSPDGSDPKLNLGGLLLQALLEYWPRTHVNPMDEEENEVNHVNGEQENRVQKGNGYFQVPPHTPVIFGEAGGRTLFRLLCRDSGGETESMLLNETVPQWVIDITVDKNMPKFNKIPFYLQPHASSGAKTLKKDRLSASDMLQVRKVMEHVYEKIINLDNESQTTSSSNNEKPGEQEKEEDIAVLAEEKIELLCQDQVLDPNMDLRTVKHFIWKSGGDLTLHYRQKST

No constants are given. Whether binding was seen depends on the method and setting. Some entries that bind do so weakly or less than the wild type.

The assay concerns the target T1, USP1 (human) (UniProt O94782).
T1 sequence: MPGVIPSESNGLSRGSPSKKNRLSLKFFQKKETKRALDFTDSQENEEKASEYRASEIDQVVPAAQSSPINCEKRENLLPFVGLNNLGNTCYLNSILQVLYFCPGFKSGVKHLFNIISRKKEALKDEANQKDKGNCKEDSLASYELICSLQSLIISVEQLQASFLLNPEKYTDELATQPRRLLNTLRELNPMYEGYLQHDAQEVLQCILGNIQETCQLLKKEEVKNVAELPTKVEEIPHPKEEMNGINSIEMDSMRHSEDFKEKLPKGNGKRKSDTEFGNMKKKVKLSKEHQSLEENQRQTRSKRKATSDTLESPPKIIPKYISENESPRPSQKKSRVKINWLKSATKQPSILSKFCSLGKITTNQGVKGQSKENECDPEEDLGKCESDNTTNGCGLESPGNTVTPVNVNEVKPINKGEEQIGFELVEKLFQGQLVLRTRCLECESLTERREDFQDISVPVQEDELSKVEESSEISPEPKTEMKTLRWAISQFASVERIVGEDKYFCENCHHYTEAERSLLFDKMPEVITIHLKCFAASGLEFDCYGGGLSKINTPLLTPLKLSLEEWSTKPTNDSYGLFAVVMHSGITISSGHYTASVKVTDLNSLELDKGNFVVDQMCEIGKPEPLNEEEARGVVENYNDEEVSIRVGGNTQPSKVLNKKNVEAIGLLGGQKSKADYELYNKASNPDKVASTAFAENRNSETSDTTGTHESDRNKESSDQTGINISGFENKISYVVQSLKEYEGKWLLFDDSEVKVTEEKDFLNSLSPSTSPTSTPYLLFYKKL
In words: co-purification; untagged UAF1 co-expressed with N-terminally six-histidine-tagged USP1 in Sf21 insect cells; NiNTA chromatography, anion exchange and gel filtration. A general note: Size exclusion chromatography separates by hydrodynamic size, large species first.

Regarding “UAF1 (untagged) (from UniProt Q8TAF3 1-677)”, the binding result is on record as “binds”.
